In the supplement of paper PMC8728848:
Some of the results follow.

What was measured:
Experiment in all cases: glycan array binding signal (z-score within array); higher = stronger binding
Details in all cases: glycan notation: IUPAC condensed, linker removed
[1] = target: Gal(b1-3)GlcNAc(b1-2)Man(a1-3)[Gal(b1-3)GlcNAc(b1-2)Man(a1-6)]Man(b1-4)GlcNAc(b1-4)GlcNAc
How it was run: (§1)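 Columns mapping to the same glycan were averaged after glycan names were converted to IUPAC-condensed notation. The data come from 3228 arrays in the Consortium for Functional Glycomics database, limited to those with an available protein sequence. Binding is reported as a within-array Z-score averaged across arrays of one protein sequence and across linkers.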

[2] = target: Gal(b1-3)GlcNAc(b1-2)Man(a1-3)[Gal(b1-3)GlcNAc(b1-2)Man(a1-6)]Man(b1-4)GlcNAc(b1-4)[Fuc(a1-6)]GlcNAc
How it was run: as §1

[3] = target: Gal(b1-3)GlcNAc(b1-2)Man(a1-3)[GlcNAc(b1-4)][Gal(b1-3)GlcNAc(b1-2)Man(a1-6)]Man(b1-4)GlcNAc(b1-4)GlcNAc
How it was run: as §1

[4] = target: Gal(b1-3)GlcNAc(b1-2)[Gal(b1-3)GlcNAc(b1-6)]Man(a1-6)[Gal(b1-3)GlcNAc(b1-2)Man(a1-3)]Man(b1-4)GlcNAc(b1-4)GlcNAc
How it was run: as §1

[5] = target: Gal(b1-3)GlcNAc(b1-3)Gal(b1-3)GlcNAc
How it was run: as §1

[6] = target: Gal(b1-3)GlcNAc(b1-3)Gal(b1-4)Glc
How it was run: as §1

[7] = target: Gal(b1-3)GlcNAc(b1-3)Gal(b1-4)GlcNAc
How it was run: as §1

[8] = target: Gal(b1-3)GlcNAc(b1-3)Gal(b1-4)GlcNAc(b1-2)Man(a1-3)[Gal(b1-3)GlcNAc(b1-3)Gal(b1-4)GlcNAc(b1-2)Man(a1-6)]Man(b1-4)GlcNAc(b1-4)GlcNAc
How it was run: as §1

[9] = target: Gal(b1-3)GlcNAc(b1-3)Gal(b1-4)GlcNAc(b1-2)[Gal(b1-3)GlcNAc(b1-3)Gal(b1-4)GlcNAc(b1-6)]Man(a1-6)[Gal(b1-3)GlcNAc(b1-3)Gal(b1-4)GlcNAc(b1-2)Man(a1-3)]Man(b1-4)GlcNAc(b1-4)[Fuc(a1-6)]GlcNAc
How it was run: as §1

[10] = target: Gal(b1-3)GlcNAc(b1-3)Gal(b1-4)GlcNAc(b1-3)Gal(b1-4)GlcNAc(b1-2)[Gal(b1-3)GlcNAc(b1-3)Gal(b1-4)GlcNAc(b1-3)Gal(b1-4)GlcNAc(b1-6)]Man(a1-6)[Gal(b1-3)GlcNAc(b1-3)Gal(b1-4)GlcNAc(b1-3)Gal(b1-4)GlcNAc(b1-2)Man(a1-3)]Man(b1-4)GlcNAc(b1-4)[Fuc(a1-6)]GlcNAc
How it was run: as §1

[11] = target: Gal(b1-3)GlcNAc(b1-3)Gal(b1-4)GlcNAc(b1-6)[Gal(b1-3)GlcNAc(b1-3)]Gal(b1-4)Glc
How it was run: as §1

[12] = target: Gal(b1-3)GlcNAc(b1-3)Gal(b1-4)[Fuc(a1-3)]GlcNAc
How it was run: as §1

[13] = target: Gal(b1-3)GlcNAc(b1-3)Gal(b1-4)[Fuc(a1-3)]GlcNAc(b1-6)[Gal(b1-3)GlcNAc(b1-3)]Gal(b1-4)Glc
How it was run: as §1

[14] = target: Gal(b1-3)GlcNAc(b1-3)GalNAc
How it was run: as §1

[15] = target: Gal(b1-3)GlcNAc(b1-6)Gal(b1-4)GlcNAc
How it was run: as §1

[16] = target: Gal(b1-3)GlcNAc(b1-6)GalNAc
How it was run: as §1

[17] = target: Gal(b1-3)GlcNAc(b1-6)[Gal(b1-3)]GalNAc
How it was run: as §1

Gal(b1-3)GlcNAc6S = target: Gal(b1-3)GlcNAc6S
How it was run: as §1

[18] = target: Gal(b1-3)[Fuc(a1-4)]GlcNAc
How it was run: as §1

[19] = target: Gal(b1-3)[Fuc(a1-4)]GlcNAc(b1-2)Man
How it was run: as §1

[20] = target: Gal(b1-3)[Fuc(a1-4)]GlcNAc(b1-2)Man(a1-3)[Gal(b1-3)[Fuc(a1-4)]GlcNAc(b1-2)Man(a1-6)]Man(b1-4)GlcNAc(b1-4)[Fuc(a1-6)]GlcNAc
How it was run: as §1

[21] = target: Gal(b1-3)[Fuc(a1-4)]GlcNAc(b1-3)Gal(b1-3)[Fuc(a1-4)]GlcNAc
How it was run: as §1

[22] = target: Gal(b1-3)[Fuc(a1-4)]GlcNAc(b1-3)Gal(b1-4)[Fuc(a1-3)]GlcNAc
How it was run: as §1

[23] = target: Gal(b1-3)[Fuc(a1-4)]GlcNAc(b1-6)GalNAc
How it was run: as §1

[24] = target: Gal(b1-3)[GlcNAc(b1-6)]GalNAc
How it was run: as §1

[25] = target: Gal(b1-3)[Neu5Ac(a2-6)]GalNAc
How it was run: as §1

[26] = target: Gal(b1-3)[Neu5Ac(a2-6)]GlcNAc(b1-4)Gal(b1-4)Glc
How it was run: as §1

[27] = target: Gal(b1-3)[Neu5Ac(b2-6)]GalNAc
How it was run: as §1

Gal(b1-4)Gal = target: Gal(b1-4)Gal
How it was run: as §1

[28] = target: Gal(b1-4)GalNAc(a1-3)[Fuc(a1-2)]Gal(b1-4)GlcNAc
How it was run: as §1

[29] = target: Gal(b1-4)GalNAc(b1-3)[Fuc(a1-2)]Gal(b1-4)GlcNAc
How it was run: as §1

Gal(b1-4)Glc = target: Gal(b1-4)Glc
How it was run: as §1

Gal(b1-4)Glc6S = target: Gal(b1-4)Glc6S
How it was run: as §1

Gal(b1-4)GlcNAc = target: Gal(b1-4)GlcNAc
How it was run: as §1

[30] = target: Gal(b1-4)GlcNAc(a1-6)Gal(b1-4)GlcNAc
How it was run: as §1

Gal(b1-4)GlcNAc(b1-2)Man = target: Gal(b1-4)GlcNAc(b1-2)Man
How it was run: as §1

[31] = target: Gal(b1-4)GlcNAc(b1-2)Man(a1-3)Man(b1-4)GlcNAc(b1-4)GlcNAc
How it was run: as §1

B1: AT3G44510(29) (Arabidopsis thaliana), F4J341 (protein)
chain: MEEHLQGRIKLHDGRYLAYKERGVPKDDAKFTIVLVHGFGSSKDMNFNVSQELVNEIGIYFVLYDRAGYGESDPNPKRSLKSEAYDVQELADGLEIGSRFYLIGISMGSYTVWSCLKHIPQRLAGVAMVAPVVNFRWPSIPKSLMPKDYRREVAKWSVWIANYFPGLLQWLVTQNMFSTTSMLEKNPVYFNDQDIEVLKHIKGFPMLTKEKLRERGVFGTLRSDFLVAFGDWDFDPADLPDPSLSGPEKGSSSVHIWQGYEDKVMPFQLQRCLCRKLPWIRYHEVPKGGHLIVHYDGICDAILKSLLLGEDLPMYKPKAVITEPA
glycan array binding signal (z-score) [1]: -0.283 | glycan array binding signal (z-score) [2]: -0.424 | glycan array binding signal (z-score) [3]: -0.481 | glycan array binding signal (z-score) [4]: -0.707 | glycan array binding signal (z-score) [5]: -0.449 | glycan array binding signal (z-score) [6]: 1.33 | glycan array binding signal (z-score) [7]: -0.627 | glycan array binding signal (z-score) [8]: 0.612 | glycan array binding signal (z-score) [9]: 0.952 | glycan array binding signal (z-score) [10]: 0.771 | glycan array binding signal (z-score) [11]: -0.391 | glycan array binding signal (z-score) [12]: -0.095 | glycan array binding signal (z-score) [13]: -0.556 | glycan array binding signal (z-score) [14]: -0.212 | glycan array binding signal (z-score) [15]: 0.186 | glycan array binding signal (z-score) [16]: -0.517 | glycan array binding signal (z-score) [17]: -0.723 | glycan array binding signal (z-score) (Gal(b1-3)GlcNAc6S): 0.789 | glycan array binding signal (z-score) [18]: 0.909 | glycan array binding signal (z-score) [19]: 0.037 | glycan array binding signal (z-score) [20]: -0.17 | glycan array binding signal (z-score) [21]: -0.685 | glycan array binding signal (z-score) [22]: -0.679 | glycan array binding signal (z-score) [23]: 0.345 | glycan array binding signal (z-score) [24]: -0.109 | glycan array binding signal (z-score) [25]: -0.229 | glycan array binding signal (z-score) [26]: -0.252 | glycan array binding signal (z-score) [27]: 0.16 | glycan array binding signal (z-score) (Gal(b1-4)Gal): -0.473 | glycan array binding signal (z-score) [28]: -0.319 | glycan array binding signal (z-score) [29]: 0.185 | glycan array binding signal (z-score) (Gal(b1-4)Glc): -0.212 | glycan array binding signal (z-score) (Gal(b1-4)Glc6S): 1.06 | glycan array binding signal (z-score) (Gal(b1-4)GlcNAc): -0.181 | glycan array binding signal (z-score) [30]: -0.378 | glycan array binding signal (z-score) (Gal(b1-4)GlcNAc(b1-2)Man): 1.46 | glycan array binding signal (z-score) [31]: -0.356
